The name of at least one read-out is uncertain.
Assay: Pharmacokinetics of P218 / pro-drug P195 in male Swiss outbred mice
Type: in vivo
Conditions: following oral P195; first blood sample
Procedure: In a separate study, the oral bioavailability of P195, the ester pro-drug of P218 which contains a carboxylic acid side chain was investigated in mice. Male Swiss outbred mice were administered P218 (the free acid) intravenously by bolus tail vein injection at a nominal dose of 5 mg/kg and P195 (the ester pro-drug) orally by gavage at a nominal dose of 20 mg/kg. […] Blood sampling was conducted by cardiac puncture with a single sample per mouse, and two mice per time point over 16 hours post dosing. Blood samples were separated and plasma analyzed by LCMS as described above. The plasma concentration versus time profiles for P218 following IV administration of P218 and following oral administration of the pro-drug P195 are shown in FIG. 9. Plasma concentrations of P218 remained above the lower limit of quantitation (LLQ=0.0014 μM) for 7.5 h following IV administration.

Q: Which “time of maximum plasma concentration (Cmax) of P218” value does the source give for `CCc1nc(N)nc(N)c1OCCCOc1ccccc1CCC(=O)O` [Compound P218, 2,4-diamino-6-ethyl-5-(3-(2-(2-carboxyethyl)phenoxy)propoxy)pyrimidine] here?
A: The value was 15 min.

From patent US8530491B2, “Antimalarial compounds with flexible side-chains” (Medicines for Malaria Venture (MMV), priority 2007, dated 2013)
